Results are given in words; binding and its absence hold for the method and conditions named. Binding seen in cells or lysates may run through a third protein. A result given as binding can be weak or reduced; the word gives no strength. Sequences can lack the tags named with a protein.

For the experiment, the target named is T1, HA-USP44 (UniProt Q9H0E7).
T1 sequence: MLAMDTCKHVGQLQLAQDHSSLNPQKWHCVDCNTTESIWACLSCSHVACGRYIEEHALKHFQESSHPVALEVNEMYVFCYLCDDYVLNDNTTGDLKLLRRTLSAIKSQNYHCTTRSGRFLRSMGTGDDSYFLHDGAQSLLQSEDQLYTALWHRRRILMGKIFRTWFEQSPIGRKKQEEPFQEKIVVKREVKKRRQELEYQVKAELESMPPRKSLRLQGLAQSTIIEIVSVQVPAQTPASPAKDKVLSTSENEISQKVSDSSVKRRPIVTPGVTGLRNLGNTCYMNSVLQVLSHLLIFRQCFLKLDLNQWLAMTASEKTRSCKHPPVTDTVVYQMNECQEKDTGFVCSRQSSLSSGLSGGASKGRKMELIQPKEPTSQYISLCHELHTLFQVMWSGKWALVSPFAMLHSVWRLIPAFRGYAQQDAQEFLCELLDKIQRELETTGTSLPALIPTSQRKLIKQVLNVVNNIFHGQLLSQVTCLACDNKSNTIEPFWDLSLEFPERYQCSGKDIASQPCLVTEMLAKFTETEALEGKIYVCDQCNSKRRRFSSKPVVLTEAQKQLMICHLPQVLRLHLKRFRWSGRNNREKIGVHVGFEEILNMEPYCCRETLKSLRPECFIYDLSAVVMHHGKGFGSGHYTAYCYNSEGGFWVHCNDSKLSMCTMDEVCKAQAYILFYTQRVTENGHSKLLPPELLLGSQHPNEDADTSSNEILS
The experiment is described as follows: co-IP; truncation co-IP of TRIM25 domains with USP44 (Supplementary Fig. 5a); cells and tags not stated.

For TRIM25 HR1 domain (domain or fragment), the binding result is reported as “binds”.

Turning to “TRIM25 PRY/SPRY domain (domain or fragment)”, the binding entry was “binds”.

On to “TRIM25 RING finger domain (domain or fragment)”, for which the binding result is on record as “no binding”.

Values taken from PMC8789930.
